The match of structure and compound is tentative. Where only a bound is given, the exact number is not on record here.

Protein sequences, listed by entry. Tags and fused reporters are not part of them. Residues count along the entry.
UniProt H0VZC5, 1-426: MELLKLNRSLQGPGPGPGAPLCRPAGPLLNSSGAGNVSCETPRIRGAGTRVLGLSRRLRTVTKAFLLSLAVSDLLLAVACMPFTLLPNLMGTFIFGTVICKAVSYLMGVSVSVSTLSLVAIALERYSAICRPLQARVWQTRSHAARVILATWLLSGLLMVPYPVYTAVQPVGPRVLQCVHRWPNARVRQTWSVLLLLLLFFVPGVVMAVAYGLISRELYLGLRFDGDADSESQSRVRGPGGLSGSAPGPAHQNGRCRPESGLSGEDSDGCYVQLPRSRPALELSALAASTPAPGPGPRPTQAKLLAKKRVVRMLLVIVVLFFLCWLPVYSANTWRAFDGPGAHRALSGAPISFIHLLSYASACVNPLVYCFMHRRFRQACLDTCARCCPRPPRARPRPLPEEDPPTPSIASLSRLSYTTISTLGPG

The experiment deals with CCKB receptor (guinea pig cerebral cortex) (Cavia porcellus, UniProt H0VZC5). Nature of the experiment: 125I-CCK-8 receptor binding assay, CCKB. Conditions: read-out: Activity CCK-B [μM] (IC50); Table 2; guinea pig cerebral cortex membranes. The method, then:
CCKA and CCKB receptor binding assays were performed, by using guinea pig cerebral cortex (CCKB) or rat pancreas (CCKA). Male guinea pig brain tissues were prepared according to the modified method described by Saita et al, [(1994), Characterization of YM022: its CCKB/gastrin receptor binding profile and antagonism to CCK-8-induced Ca2+mobilization., Eur. J. Pharmacol.,269, 249-254]. Pancreatic membranes were prepared in a similar way but by Charpentier et al, [(1988), Cyclic cholecystokinin analogues with high selectivity for central receptors., Proc Natl Acad Sci USA, 85, 1968-1972]. The […] CCK binding assay: Tissues were homogenized in ice cold sucrose (0.32 M, 25 ml) for 15 strokes at 500 rpm and centrifuged at 13000 rpm for 10 mins. The supernatant was re-centrifuged at 13000 rpm for 20 mins. The resulting pellet was re-dispersed to the required volume of buffer at 500 rpm and stored in aliquots at […].
Binding was achieved using a radioligand ^125I-Bolton-Hunter labeled CCK, NEN at 25 pM. The samples were incubated {with membranes (0.1 mg/ml) } in 20 mM Hepes, 1 mM EGTA, 5 mM MgCl2, 150 mm NaCl, 0.25 mg/ml bacitracin at pH 6.5 for 2 hrs at RT and then […] by centrifugation at 1100 rpm for 5 minutes. The membrane pellets were washed twice with water and the bound radioactivity was measured in a Packard Cobra Auto-gamma counter (B5005). All binding assays were carried out with L-363, 260 as an internal non-specific standard. Controls (no compound) were also added. All samples were made in duplicate and repeated twice. All compounds were initially screened for percentage inhibition at 20 μm. Samples showing an average inhibition of <35% were diluted to 2 μm and re-screened and if active diluted again.
Usually IC50 stands for the midpoint of a concentration-inhibition curve. As to `C=COC1OC(=O)C(Cl)=C1N1CCc2ccccc21` (centres unmarked), the concentration for half-maximal inhibition (IC50) came to 18.5 µM. For `Cc1c(NC2=C(Cl)C(=O)OC2Cl)c(=O)n(-c2ccccc2)n1C` (centres unmarked), the IC50 was more than 20 µM. Under `CC1CCC(C(C)C)C(OC2OC(=O)C(Cl)=C2N2CC(C)OC(C)C2)C1` (centres unmarked) stands 10.3 µM. With `CCCCCCCCCCCCCCCCOC1OC(=O)C(Cl)=C1NCc1ccccc1Cl` (centres unmarked), the IC50 stood at 0.24 µM.

Consider `CCCCCCCCCCCCCCCCOC1OC(=O)C(Cl)=C1N1CCN(Cc2ccccc2)CC1` (centres unmarked), for which the IC50 is 13.9 µM. For `COC1OC(=O)C(Cl)=C1NCc1ccccc1` (centres unmarked), the IC50 is 1 µM.

`CC(C)OC1OC(=O)C(Cl)=C1N1CCN(Cc2ccccc2)CC1` (centres unmarked): the concentration for half-maximal inhibition (IC50) was more than 20 µM. The figure for `COC1OC(=O)C(Cl)=C1NCCc1ccccc1` (centres unmarked) is 0.9 µM. For the molecule `O=C1OC(Cl)C(N2CCc3ccccc32)=C1Cl` (centres unmarked), the 50% inhibitory concentration (IC50) is more than 20 µM.

On to `COC1OC(=O)C(Cl)=C1N1CC(C)OC(C)C1` (centres unmarked), for which the IC50 was 15 µM. Under `CCCCCCCCCCCCCCCCOC1OC(=O)C(Cl)=C1n1cnc2ccccc21` (centres unmarked) stands 1.2 µM; under `C=COC1OC(=O)C(Cl)=C1n1cnc2ccccc21` (centres unmarked), more than 20 µM. Take `C#CCOC1OC(=O)C(Cl)=C1N1CCc2ccccc21` (centres unmarked): the concentration for half-maximal inhibition (IC50) is more than 20 µM.

With `COC1OC(=O)C(Cl)=C1N1CCN(Cc2ccccc2)CC1` (centres unmarked) [Example A8B16], the 50% inhibitory concentration (IC50) came to 14 µM.

The values above are taken from patent publication US20070123718A1, “Novel 4-amino-2(5H)-furanones” (Aston University, priority 2003, published 2007).
